Data from patent publication US20140037662A1.
These are yes or no findings as the source states them, for the method shown. Some entries that bind do so weakly or less than the wild type.

Chains of the proteins cited; added tags and fusions are not shown. Residues count along the entry.
UniProt P04223, residues 22-369: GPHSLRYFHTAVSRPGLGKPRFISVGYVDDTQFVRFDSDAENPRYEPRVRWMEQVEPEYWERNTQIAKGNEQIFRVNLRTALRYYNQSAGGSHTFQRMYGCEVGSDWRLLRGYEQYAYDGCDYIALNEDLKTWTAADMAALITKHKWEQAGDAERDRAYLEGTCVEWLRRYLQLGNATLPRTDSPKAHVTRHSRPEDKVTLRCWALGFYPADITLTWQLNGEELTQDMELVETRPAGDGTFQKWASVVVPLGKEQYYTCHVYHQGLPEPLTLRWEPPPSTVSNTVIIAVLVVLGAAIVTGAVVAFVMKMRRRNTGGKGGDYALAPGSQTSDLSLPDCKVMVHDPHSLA

Biological target: K^k class I MHC molecule on K^k-expressing T2 cells (mouse) (UniProt P04223)
Test: T2 cell assay: peptide-induced stabilisation of surface K^k on K^k-expressing T2 cells after overnight incubation, stained with a class I-specific antibody

In the case of EEKKGNYV [EEKKGNYV (SEQ ID NO: 3) peptide], the binding is reported as “binds”.
